Measurements reported in patent US20150051227A1, “PREDICTIVE BIOMARKER USEFUL FOR CANCER THERAPY MEDIATED BY A CDK INHIBITOR” (Merck Sharp & Dohme Corp., priority 2012, published 2015).
Where two headings read alike, the source gives them in different places.

Legend:
511 tumor cell lines = assay: cells; details: read-out: EC50 (50% growth inhibition)
more than 140 cell lines = assay: cells; details: 72 h
[1] = system: Millipore panel of 50 diverse kinases; details: cited from earlier work

CCc1cnn2c(NCc3ccc[n+]([O-])c3)cc(N3CCCC[C@H]3CCO)nc12 [SCH 727965 (Dinaciclib)]
EC50 (511 tumor cell lines; 96 h): < 20 nM | EC50 (511 tumor cell lines): 5 to 45 nM | IC50 (more than 140 cell lines): ≤ 25 nM | IC50 [1]: > 10000 nM
